Here are results for one substance from paper PMC12894930.

The chains behind the UniProt entries cited, without tags or fusion partners. Where a name states a change or a piece, a line headed by the entry shows the natural chain unless it says otherwise.
UniProt Q5TC12: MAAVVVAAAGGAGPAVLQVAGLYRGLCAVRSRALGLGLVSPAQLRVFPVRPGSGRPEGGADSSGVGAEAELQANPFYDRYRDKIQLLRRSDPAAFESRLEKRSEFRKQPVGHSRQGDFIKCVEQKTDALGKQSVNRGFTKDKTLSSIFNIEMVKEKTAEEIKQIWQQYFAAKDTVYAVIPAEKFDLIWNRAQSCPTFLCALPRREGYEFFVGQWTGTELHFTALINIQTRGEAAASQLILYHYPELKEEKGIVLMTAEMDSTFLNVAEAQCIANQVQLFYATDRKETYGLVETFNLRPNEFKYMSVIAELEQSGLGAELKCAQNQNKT

These are yes or no findings as the source states them, for the method shown. Binding seen in cells or lysates may run through a third protein. A result given as binding can be weak or reduced; the word gives no strength.

The target of one assay is 3xFLAG-ATPAF1 (human) (UniProt Q5TC12). The assay can be described thus: co-IP; myc-SHP2, c-Src and FLAG-ATPAF1 co-transfected in SHP2 KO HEK 293 cells; lysis in 20 mM Tris-HCl pH 8.0, 137 mM NaCl, 2 mM EDTA, 10% glycerol, 0.5% NP-40; FLAG-beads 30 min at room temperature; blot for SHP2.
The target in assay [1] is 3xFLAG-ATPAF1 Y23F (human) (UniProt Q5TC12). The description is as above.

“myc-SHP2^WT (from UniProt Q06124-2 1-593) (enzyme)”: the binding entry (with 3xFLAG-ATPAF1 (human); in assay [1]) was “binds” each time.
